Test results taken from US20160319034A1 (ONCOMED PHARMACEUTICALS, published 2016).
Results are given in words; binding and its absence hold for the method and conditions named. Some binding calls cover weakened binding; strength is not graded here. Sequences can lack the tags named with a protein.

Sequences of proteins named here, by UniProt entry; tags and fusion partners are left off. A change or cut given only in a name is not applied to a line headed by its entry.
UniProt P08581: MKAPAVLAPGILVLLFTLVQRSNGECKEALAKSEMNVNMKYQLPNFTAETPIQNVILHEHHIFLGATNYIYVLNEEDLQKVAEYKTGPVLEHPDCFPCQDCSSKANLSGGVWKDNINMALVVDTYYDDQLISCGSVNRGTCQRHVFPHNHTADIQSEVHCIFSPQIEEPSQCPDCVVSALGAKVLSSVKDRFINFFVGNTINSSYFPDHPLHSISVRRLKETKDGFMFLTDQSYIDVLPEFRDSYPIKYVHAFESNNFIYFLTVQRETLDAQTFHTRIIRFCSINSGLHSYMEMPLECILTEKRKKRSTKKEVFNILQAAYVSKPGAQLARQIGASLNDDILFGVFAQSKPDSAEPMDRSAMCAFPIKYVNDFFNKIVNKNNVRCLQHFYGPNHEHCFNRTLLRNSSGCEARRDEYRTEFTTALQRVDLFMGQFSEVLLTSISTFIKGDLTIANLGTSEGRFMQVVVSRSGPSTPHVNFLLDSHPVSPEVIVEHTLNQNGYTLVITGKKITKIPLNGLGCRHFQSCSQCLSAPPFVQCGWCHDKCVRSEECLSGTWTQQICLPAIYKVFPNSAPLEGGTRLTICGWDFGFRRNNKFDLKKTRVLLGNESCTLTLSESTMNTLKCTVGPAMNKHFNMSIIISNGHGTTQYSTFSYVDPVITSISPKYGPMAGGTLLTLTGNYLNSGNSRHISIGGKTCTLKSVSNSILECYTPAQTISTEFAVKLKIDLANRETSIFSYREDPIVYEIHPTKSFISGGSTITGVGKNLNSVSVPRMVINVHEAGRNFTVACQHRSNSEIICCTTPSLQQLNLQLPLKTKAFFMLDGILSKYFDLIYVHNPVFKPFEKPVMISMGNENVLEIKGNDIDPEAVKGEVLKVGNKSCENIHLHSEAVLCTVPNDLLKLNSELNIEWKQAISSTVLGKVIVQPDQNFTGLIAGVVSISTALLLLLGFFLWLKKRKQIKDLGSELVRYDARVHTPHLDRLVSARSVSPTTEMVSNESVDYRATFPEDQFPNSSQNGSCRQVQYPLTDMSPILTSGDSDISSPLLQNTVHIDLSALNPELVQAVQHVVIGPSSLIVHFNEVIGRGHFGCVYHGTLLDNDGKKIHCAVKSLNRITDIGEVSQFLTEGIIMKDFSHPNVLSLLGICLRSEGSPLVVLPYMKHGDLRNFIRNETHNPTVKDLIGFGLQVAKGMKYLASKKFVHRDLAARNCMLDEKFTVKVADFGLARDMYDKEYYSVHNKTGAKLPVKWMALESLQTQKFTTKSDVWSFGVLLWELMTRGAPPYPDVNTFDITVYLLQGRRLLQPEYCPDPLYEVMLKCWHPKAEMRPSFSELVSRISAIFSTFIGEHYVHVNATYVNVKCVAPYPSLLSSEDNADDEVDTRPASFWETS

B1: monovalent version of anti-MET antibody 73R009 (antibody, V domains shown)
VH: QVQLQESGPGLVKPSETLSLTCTVTGTTITASYAWSWIRQPPGKGLEWMGYISYSGGTDYNPSLKSRITISRDTFKNQFSLKLSSVTAADTATYYCARKGAYWGQGTLVTVSS
VL: DIVLTQSPATLSASPGEKVTLTCSASSSVSSSYLYWYQQKPGQAPKLLIYSTSNLASGVPARFSGSGSGTSYSLTISSLEPEDFATYYCHQWSSYPYTFGGGTKLEIK
notes: Only the 73R009 variable regions can be tied to this molecule; also called monovalent anti-MET antibody 73R009; monovalent version of 73R009
B2: anti-MET/FZD8-Fc bispecific agent 315B06 (bispecific antibody, human IgG2, kappa)
heavy: QVQLQESGPGLVKPSETLSLTCTVTGTTITASYAWSWIRQPPGKGLEWMGYISYSGGTDYNPSLKSRITISRDTFKNQFSLKLSSVTAADTATYYCARKGAYWGQGTLVTVSSASTKGPSVFPLAPCSRSTSESTAALGCLVKDYFPEPVTVSWNSGALTSGVHTFPAVLQSSGLYSLSSVVTVPSSNFGTQTYTCNVDHKPSNTKVDKTVERKCCVECPPCPAPPVAGPSVFLFPPKPKDTLMISRTPEVTCVVVDVSHEDPEVQFNWYVDGVEVHNAKTKPREEQFNSTFRVVSVLTVVHQDWLNGKEYKCKVSNKGLPAPIEKTISKTKGQPREPQVYTLPPSREKMTKNQVSLTCLVKGFYPSDIAVEWESNGQPENNYKTTPPMLKSDGSFFLYSKLTVDKSRWQQGNVFSCSVMHEALHNHYTQKSLSLSPGK
light: DIVLTQSPATLSASPGEKVTLTCSASSSVSSSYLYWYQQKPGQAPKLLIYSTSNLASGVPARFSGSGSGTSYSLTISSLEPEDFATYYCHQWSSYPYTFGGGTKLEIKRTVAAPSVFIFPPSDEQLKSGTASVVCLLNNFYPREAKVQWKVDNALQSGNSQESVTEQDSKDSTYSLSSTLTLSKADYEKHKVYACEVTHQGLSSPVTKSFNRGEC
chain: ASAKELACQEITVPLCKGIGYNYTYMPNQFNHDTQDEAGLEVHQFWPLVEIQCSPDLKFFLCSMYTPICLEDYKKPLPPCRSVCERAKAGCAPLMRQYGFAWPDRMRCDRLPEQGNPDTLCMDYNRTDLTTTKVDKTVERKSCVECPPCPAPPVAGPSVFLFPPKPKDTLMISRTPEVTCVVVDVSHEDPEVQFNWYVDGVEVHNAKTKPREEQFNSTFRVVSVLTVVHQDWLNGKEYKCKVSNKGLPAPIEKTISKTKGQPREPQVYTLPPSREEMTKNQVSLTCLVEGFYPSDIAVEWESNGQPENNYKTTPPMLDSDGSFFLYSELTVDKSRWQQGNVFSCSVMHEALHNHYTQKSLSLSPGK
notes: Heterodimer with one anti-MET arm (heavy and light chain) and one FZD8-Fc soluble receptor arm; also called bispecific anti-MET/FZD8-Fc agent 315B06; 351B06 [sic]

Biological target: human MET (soluble analyte in the Biacore assay) (human) (UniProt P08581)
Experiment: SPR (Biacore 2000)

Binder | binding
B1 | binds
B2 | binds
